The experiment concerns the target T1, HspBP1 (hsp70-binding protein 1) (human (endogenous in HeLa)) (UniProt Q9NZL4).
T1 sequence: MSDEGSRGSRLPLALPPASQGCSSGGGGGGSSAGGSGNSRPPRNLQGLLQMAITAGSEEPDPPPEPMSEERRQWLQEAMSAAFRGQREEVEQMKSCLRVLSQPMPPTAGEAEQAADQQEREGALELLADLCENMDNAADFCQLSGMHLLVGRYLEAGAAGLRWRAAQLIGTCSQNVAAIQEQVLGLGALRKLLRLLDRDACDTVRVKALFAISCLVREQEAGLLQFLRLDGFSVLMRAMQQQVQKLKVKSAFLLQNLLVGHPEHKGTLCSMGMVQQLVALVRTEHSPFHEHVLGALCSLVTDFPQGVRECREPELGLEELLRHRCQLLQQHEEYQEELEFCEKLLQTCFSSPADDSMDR
Put plainly: affinity purification with mass spectrometry; HeLa cells, control or DEM-treated; proteins reversibly cross-linked with DSP; complexes immunoprecipitated with antibodies against HspBP1; gel bands digested with trypsin, MSMS.

The chains behind the UniProt entries cited, without tags or fusion partners.
UniProt Q13283: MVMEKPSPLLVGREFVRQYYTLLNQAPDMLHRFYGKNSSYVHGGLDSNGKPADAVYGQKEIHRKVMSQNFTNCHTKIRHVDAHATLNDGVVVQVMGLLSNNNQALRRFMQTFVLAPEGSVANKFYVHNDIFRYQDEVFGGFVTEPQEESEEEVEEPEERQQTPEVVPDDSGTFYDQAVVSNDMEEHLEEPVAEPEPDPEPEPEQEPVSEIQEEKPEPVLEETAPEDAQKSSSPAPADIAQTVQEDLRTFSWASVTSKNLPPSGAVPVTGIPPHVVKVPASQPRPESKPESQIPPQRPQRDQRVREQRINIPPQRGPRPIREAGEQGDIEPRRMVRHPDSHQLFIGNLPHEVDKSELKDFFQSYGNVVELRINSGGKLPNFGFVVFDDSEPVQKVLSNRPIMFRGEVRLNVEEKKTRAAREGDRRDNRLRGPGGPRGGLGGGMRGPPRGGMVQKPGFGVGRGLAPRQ

Here are results for one substance from article PMC7226807.

These are yes or no findings as the source states them, for the method shown. In cells and extracts the contact can be indirect. A yes stands for co-enrichment or nearness to the bait. Other partners may have been found.

For G3BP1 (from UniProt Q13283 1-466), the binding entry is “binds”.
